# Test results as given in patent US20110144187, “APTAMER INHIBITION OF THROMBUS FORMATION” (published 2011).
# Chains of the proteins cited; added tags and fusions are not shown. Chains listed by the source or under a name are the forms on record and can include a tag or linker.
# fibrinogen (Homo sapiens), one chain, as listed by the source, chain 2 of 3: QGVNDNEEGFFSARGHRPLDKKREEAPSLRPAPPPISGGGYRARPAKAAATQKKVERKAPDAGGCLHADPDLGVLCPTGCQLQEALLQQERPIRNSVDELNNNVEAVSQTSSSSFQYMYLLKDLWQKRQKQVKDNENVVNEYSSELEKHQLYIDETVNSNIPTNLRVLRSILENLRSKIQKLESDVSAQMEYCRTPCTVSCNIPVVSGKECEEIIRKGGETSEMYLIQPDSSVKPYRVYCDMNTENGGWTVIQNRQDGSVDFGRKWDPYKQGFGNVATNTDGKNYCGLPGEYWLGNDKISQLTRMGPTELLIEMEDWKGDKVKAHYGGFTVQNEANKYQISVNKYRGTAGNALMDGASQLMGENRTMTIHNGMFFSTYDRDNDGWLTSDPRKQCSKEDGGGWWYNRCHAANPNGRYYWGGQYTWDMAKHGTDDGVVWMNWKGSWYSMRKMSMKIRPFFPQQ
# fibrinogen (Homo sapiens), one chain, as listed by the source, chain 1 of 3: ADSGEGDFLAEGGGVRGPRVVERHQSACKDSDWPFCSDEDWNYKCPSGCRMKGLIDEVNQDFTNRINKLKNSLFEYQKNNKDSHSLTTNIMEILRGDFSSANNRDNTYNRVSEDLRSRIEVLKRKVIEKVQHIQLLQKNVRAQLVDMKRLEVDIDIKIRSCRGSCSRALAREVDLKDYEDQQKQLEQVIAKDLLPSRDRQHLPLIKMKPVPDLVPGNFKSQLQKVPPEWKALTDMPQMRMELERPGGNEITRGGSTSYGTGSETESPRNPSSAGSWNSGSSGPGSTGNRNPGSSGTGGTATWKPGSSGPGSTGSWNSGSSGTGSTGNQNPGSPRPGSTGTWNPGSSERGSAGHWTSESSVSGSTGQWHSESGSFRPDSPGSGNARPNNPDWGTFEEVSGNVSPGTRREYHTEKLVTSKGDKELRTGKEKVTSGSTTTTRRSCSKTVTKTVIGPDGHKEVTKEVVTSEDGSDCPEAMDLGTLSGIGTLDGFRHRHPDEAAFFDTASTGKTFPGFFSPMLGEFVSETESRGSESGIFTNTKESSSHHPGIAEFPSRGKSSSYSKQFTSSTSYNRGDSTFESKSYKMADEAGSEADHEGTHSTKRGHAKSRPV
# fibrinogen (Homo sapiens), one chain, as listed by the source, chain 3 of 3: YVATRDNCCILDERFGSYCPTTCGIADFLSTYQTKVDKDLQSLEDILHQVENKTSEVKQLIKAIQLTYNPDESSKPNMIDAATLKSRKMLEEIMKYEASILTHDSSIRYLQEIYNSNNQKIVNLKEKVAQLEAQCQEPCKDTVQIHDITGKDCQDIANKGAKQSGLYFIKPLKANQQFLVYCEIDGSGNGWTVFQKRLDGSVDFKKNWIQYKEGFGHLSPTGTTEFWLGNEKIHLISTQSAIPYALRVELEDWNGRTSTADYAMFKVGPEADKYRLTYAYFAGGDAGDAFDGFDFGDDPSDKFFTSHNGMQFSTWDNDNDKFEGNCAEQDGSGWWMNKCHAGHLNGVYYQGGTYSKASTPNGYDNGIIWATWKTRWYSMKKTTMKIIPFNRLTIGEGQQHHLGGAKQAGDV
# The exact form of at least one protein or probe is not confirmed.
# System: fibrinogen (Homo sapiens)
# Assay: SPR
# Conditions: quinoline-8-boronic acid-modified T (B-TTP) replacing T outside the primer region; biotin-aptamer on streptavidin chip; purified native protein; label: 32P (filtration) or 5'-biotin (SPR); single-stranded DNA
sequence,measurement,value
CCTTCGTTGTCTGCCTTCGTAGGACCGCAGACATCGACGCAGGGAAATTCCGCAAGTCCAGCCAAATGCCACCCTTCAGAATTCGCACCA [85B B-TTP (114O)],Kd,0.0101 µM
